# Some results were stated once for a whole list of compounds, not compound by compound.
# System: Prostaglandin E2 (prostanoid formation in liver homogenates)
# Test: Prostaglandin E2 in the liver homogenate by enzyme immunoassay after five-day treatment
# Type: in vivo
# Conditions: male rats, once daily by gavage for five days, sacrificed 6 hr after treatment; diclofenac 20 mg/kg, compound of example 1 36 mg/kg
structure (smiles),measurement,value
O=C(O)Cc1ccccc1Nc1c(Cl)cccc1Cl [Diclofenac],Reduction of prostanoid formation in liver homogenates as compared to vehicle-treated animals,≥ 90%
